Test results: patent US20080261286A1, “Methods for producing optically active alpha-hydroxy amides” (Daicel Chemical Industries, Ltd., priority 2004, published 2008)
Some entries share one result that the patent states for a list of compounds. For at least one compound, name, drawing or mass did not settle the structure.

Target: T1, α-ketoamide reductase encoded by YDL124w (Saccharomyces cerevisiae, UniProt Q07551)
T1 construct: made in house; dialysed 70% ammonium sulfate precipitate of the cell-free extract
T1 sequence (Q07551 1-312): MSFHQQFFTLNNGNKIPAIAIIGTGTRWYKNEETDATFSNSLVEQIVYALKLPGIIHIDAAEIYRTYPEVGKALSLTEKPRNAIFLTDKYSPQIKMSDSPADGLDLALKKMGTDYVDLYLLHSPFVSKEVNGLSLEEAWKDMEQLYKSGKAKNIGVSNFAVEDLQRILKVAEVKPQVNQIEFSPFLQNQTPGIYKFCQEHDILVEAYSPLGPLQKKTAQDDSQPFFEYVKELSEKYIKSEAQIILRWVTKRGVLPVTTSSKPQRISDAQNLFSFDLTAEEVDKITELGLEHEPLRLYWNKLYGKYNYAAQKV
Assay: Reduction with crude enzyme solution from E. coli transformant expressing YDL124w
Assay type: biochemical

[1] = crude enzyme solution (70% ammonium sulfate fraction) from E. coli containing pSG-YDL1, procedure of Example 8
[2] = crude enzyme solution from E. coli transformed with pSE-YDL1 (summary)

| Structure (SMILES) | optical purity of product [1] [% ee] | optical purity of product [2] [% ee] |
| --- | --- | --- |
| NC(=O)C(=O)c1ccccc1Cl [2-chlorobenzoyl formamide] | ≥ 99 | ≥ 99 |
| CCOC(=O)C(=O)C(C)C [2-oxo isovalerate ethyl ester] | ≥ 99 | ≥ 99 |
